One sequence from PMC5651008, “The Copper Homeostasis Transcription Factor CopR Is Involved in H2O2 Stress in Lactobacillus plantarum CAUH2” can be followed below.

The target of the data set is T1, CopR (CopRHis6) (Lactobacillus plantarum CAUH2) (UniProt F9UU50).
T1 sequence (looked up, limits assumed): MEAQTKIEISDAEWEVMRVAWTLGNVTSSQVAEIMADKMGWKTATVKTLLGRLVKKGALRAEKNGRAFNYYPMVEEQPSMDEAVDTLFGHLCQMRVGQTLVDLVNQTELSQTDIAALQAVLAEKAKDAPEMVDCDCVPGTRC
Description: EMSA. To be noted: 5-50 uM Cu2+ series, binding weakens with increasing Cu2+ (third dose 25 uM in Methods, 20 uM in legend); 20 uL: 1x LightShift binding buffer, 50 ng/uL poly(dI-dC), 2.5% glycerol, 0.05% NP-40, 5 mM MgCl2, 20 fmol probe, 2.5 ug CopRHis6; salt and temperature not stated; recombinant protein; protein details: C-terminal His6; label: 3' biotin. On the technique in general: Mobility shift assays separate free from complexed probe on a gel.

Construct, isoform or probe ends are uncertain for at least one entry. A weaker result is weaker than the reference pair of the same experiment. Tags and fusion partners may be left off the protein sequences shown.

As to “GTGTTTTTCTTGACTTTTATCGTCTACAATTGTAAACTTTAGCCATAAATTACAGATGTAGACAAT (double strand) [copB promoter probe (EMSA copB-F/-R)]”, the binding result was “binds more weakly”.
